Patent publication US11725036B2 (Sanofi, priority 2018, dated 2023)

Assay: general procedure: Fmoc solid-phase peptide synthesis; Rink amide AM resin (low loading 0.47 mmol/g; Novabiochem or ChemImpex); DIC 0.5M/Oxyma 1M in DMF
Settings: whole synthesis; for final HPLC purity: UV; for final HPLC purity / isolated yield: scale of the general procedure 0.1-0.2 mmol per batch

Substance	isolated mass (TFA salt)	final HPLC purity (trifluoroacetate salt)	isolated yield (trifluoroacetate salt)	crude mass (trifluoroacetate salt)	crude mass (scale 5 x 0.2 mmol, trifluoroacetate salt)	crude mass (scale 0.4 mmol, trifluoroacetate salt)	isolated mass (scale 0.1 mmol, trifluoroacetate salt)
Ac-L-E-G-R-E-K-V-R-A-K(Ac)-I-Aib-Aib-E-G-K(PEGDGA-PEGDGA-PEGDGA-gE-gE-gE-Palm)-S-T-F-S-Mly-R-A-K(Ac)-NH2	37 mg	99%	8%	220 mg	–	–	–
Ac-L-E-G-R-E-K-V-R-A-K(Ac)-I-Aib-Aib-E-G-K(TTDS-TTDS-TTDS-gE-gE-gE-Palm)-S-T-F-S-Mly-R-A-K(Ac)-NH2	428 mg	99%	17.5%	–	4300 mg	–	–
Ac-L-E-G-R-E-K-V-R-A-K(Ac)-I-Aib-Aib-E-G-K(TTDS-TTDS-TTDS-gE-gE-gE-Stea)-S-T-F-S-Mly-R-A-K(Ac)-NH2	72 mg	98%	3.6%	–	–	720 mg	–
Ac-L-E-G-R-E-K-V-R-A-K(Ac)-I-Aib-Aib-E-G-K(TTDS-TTDS-TTDS-gE-gE-gE-Stea)-S-T-W-S-Aib-R-K-K(Ac)-NH2	–	99%	4.5%	–	–	–	20 mg
Ac-L-E-G-R-E-K-V-R-A-K(Ac)-I-Aib-Aib-E-G-K(TTDS-TTDS-gE-gE-gE-Stea)-S-T-W-S-Aib-R-K-K(Ac)-NH2	38 mg	97%	8%	240000 mg	–	–	–
